The list shows a part of the results.

By UniProt entry, the sequences of proteins in these tests, tags left out. Where a name states a change or a piece, a line headed by the entry shows the natural chain unless it says otherwise.
UniProt Q8NAX2: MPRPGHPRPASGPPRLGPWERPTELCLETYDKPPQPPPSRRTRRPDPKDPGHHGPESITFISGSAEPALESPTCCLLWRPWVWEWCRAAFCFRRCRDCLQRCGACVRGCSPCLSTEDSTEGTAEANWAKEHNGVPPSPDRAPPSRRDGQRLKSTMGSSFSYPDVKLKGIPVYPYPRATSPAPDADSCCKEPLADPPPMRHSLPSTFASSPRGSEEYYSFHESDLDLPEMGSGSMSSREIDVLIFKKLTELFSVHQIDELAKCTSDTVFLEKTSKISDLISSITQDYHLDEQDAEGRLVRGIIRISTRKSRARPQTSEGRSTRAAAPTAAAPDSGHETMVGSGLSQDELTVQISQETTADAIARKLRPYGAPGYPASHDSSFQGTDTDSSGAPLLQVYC
UniProt Q15811: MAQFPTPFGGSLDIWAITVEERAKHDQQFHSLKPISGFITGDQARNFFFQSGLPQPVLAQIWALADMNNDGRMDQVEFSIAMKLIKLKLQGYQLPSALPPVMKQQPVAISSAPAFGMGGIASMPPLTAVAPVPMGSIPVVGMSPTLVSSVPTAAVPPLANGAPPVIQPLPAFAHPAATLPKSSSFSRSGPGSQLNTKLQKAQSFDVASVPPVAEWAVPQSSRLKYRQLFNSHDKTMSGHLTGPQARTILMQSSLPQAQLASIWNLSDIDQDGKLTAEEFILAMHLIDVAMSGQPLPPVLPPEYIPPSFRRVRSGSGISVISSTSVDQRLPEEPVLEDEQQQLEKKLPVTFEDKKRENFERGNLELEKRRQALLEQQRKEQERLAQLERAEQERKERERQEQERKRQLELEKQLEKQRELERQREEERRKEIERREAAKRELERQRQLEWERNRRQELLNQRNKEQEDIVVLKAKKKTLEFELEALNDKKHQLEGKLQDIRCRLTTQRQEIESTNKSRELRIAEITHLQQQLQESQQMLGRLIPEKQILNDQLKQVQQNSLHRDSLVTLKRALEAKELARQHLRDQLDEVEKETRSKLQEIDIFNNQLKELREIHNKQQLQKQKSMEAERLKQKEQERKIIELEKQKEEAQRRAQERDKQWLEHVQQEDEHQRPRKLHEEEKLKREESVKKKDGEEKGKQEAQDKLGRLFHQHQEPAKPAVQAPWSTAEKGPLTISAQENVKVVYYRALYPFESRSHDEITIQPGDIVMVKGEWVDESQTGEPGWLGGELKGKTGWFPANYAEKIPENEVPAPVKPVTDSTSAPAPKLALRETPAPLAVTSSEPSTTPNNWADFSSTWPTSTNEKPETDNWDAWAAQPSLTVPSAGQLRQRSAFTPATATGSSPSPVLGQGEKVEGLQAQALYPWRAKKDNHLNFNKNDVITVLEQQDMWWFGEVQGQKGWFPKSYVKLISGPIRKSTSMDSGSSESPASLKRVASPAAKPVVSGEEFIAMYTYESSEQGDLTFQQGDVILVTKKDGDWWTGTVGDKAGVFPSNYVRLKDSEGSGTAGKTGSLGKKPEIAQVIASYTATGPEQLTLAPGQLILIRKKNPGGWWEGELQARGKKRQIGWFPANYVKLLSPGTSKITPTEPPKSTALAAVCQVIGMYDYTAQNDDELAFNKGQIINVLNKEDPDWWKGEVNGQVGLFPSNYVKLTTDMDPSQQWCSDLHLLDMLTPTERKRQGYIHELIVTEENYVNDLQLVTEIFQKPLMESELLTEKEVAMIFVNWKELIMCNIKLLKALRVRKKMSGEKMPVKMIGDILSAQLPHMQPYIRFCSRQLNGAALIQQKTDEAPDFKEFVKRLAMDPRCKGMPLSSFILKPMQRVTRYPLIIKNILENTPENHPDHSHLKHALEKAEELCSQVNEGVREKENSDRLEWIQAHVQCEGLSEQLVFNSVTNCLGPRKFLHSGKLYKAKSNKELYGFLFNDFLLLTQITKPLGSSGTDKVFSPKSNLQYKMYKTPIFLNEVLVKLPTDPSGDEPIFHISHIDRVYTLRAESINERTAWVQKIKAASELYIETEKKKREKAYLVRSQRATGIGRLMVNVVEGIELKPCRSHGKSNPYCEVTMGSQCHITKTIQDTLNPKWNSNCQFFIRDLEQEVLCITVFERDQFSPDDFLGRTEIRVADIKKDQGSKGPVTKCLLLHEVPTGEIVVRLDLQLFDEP
UniProt O95235: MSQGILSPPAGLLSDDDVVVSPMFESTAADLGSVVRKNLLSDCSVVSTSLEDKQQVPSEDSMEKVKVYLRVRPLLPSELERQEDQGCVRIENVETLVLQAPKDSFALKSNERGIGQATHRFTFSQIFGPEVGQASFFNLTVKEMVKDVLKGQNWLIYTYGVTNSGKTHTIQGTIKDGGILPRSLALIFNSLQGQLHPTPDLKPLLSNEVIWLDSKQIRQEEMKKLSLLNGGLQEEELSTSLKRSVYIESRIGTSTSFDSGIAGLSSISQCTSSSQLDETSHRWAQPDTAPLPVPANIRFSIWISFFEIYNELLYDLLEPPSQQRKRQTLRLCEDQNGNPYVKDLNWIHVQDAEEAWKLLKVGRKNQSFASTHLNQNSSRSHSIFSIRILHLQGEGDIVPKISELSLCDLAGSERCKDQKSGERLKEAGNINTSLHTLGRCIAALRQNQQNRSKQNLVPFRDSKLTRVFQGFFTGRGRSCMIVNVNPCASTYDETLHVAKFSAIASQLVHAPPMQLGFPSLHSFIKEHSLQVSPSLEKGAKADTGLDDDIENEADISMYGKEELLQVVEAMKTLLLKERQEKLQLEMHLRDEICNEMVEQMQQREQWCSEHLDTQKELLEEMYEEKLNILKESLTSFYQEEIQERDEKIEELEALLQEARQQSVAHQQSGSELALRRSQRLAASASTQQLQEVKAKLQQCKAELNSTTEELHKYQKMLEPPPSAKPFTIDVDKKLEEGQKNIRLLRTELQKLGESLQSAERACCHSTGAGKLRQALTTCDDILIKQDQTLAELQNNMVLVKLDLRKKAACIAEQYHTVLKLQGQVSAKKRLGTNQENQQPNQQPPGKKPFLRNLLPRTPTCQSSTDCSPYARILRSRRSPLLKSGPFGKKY
UniProt Q96L93: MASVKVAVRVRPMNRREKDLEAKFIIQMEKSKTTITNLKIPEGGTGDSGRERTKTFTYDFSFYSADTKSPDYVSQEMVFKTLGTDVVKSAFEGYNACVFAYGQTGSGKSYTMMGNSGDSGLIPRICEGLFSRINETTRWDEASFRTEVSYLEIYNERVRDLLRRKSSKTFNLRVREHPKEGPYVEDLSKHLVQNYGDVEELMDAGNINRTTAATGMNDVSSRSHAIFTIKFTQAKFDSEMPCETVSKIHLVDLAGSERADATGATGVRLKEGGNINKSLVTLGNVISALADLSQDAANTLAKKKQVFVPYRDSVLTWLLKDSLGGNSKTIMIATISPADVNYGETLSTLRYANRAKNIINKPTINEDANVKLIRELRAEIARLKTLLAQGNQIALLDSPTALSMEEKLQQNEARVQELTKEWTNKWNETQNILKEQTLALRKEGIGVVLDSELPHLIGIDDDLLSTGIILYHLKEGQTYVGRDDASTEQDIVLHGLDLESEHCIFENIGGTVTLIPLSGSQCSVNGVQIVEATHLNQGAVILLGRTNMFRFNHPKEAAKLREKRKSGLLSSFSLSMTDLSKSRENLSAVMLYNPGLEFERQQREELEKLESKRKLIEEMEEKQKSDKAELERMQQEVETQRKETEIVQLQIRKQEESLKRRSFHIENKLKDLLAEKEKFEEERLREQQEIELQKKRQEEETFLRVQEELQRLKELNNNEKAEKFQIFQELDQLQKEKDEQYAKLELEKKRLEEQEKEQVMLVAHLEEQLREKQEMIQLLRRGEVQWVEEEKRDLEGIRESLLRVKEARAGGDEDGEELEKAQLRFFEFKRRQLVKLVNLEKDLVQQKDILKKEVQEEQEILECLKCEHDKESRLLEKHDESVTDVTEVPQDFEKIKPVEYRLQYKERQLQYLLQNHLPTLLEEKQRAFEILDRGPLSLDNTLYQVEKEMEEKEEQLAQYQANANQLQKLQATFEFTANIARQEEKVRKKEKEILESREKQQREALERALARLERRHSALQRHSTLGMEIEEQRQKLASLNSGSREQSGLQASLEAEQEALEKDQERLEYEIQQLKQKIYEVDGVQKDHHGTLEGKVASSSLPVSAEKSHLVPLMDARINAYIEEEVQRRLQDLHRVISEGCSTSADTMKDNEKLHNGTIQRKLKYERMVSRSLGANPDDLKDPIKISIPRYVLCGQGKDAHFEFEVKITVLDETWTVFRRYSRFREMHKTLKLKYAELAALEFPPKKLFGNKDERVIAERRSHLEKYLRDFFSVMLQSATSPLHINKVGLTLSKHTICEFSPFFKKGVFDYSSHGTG
UniProt Q9H9V9: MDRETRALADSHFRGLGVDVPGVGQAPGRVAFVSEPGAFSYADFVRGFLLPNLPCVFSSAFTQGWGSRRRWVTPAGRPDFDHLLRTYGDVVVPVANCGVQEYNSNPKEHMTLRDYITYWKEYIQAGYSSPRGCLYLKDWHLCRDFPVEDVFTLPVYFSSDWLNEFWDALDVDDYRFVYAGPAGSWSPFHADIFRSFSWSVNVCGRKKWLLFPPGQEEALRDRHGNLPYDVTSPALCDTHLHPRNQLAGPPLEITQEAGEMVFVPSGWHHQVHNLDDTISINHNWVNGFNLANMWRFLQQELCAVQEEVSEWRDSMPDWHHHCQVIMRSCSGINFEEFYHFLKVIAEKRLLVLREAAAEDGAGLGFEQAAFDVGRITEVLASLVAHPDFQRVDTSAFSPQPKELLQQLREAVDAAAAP
UniProt Q9H1H9: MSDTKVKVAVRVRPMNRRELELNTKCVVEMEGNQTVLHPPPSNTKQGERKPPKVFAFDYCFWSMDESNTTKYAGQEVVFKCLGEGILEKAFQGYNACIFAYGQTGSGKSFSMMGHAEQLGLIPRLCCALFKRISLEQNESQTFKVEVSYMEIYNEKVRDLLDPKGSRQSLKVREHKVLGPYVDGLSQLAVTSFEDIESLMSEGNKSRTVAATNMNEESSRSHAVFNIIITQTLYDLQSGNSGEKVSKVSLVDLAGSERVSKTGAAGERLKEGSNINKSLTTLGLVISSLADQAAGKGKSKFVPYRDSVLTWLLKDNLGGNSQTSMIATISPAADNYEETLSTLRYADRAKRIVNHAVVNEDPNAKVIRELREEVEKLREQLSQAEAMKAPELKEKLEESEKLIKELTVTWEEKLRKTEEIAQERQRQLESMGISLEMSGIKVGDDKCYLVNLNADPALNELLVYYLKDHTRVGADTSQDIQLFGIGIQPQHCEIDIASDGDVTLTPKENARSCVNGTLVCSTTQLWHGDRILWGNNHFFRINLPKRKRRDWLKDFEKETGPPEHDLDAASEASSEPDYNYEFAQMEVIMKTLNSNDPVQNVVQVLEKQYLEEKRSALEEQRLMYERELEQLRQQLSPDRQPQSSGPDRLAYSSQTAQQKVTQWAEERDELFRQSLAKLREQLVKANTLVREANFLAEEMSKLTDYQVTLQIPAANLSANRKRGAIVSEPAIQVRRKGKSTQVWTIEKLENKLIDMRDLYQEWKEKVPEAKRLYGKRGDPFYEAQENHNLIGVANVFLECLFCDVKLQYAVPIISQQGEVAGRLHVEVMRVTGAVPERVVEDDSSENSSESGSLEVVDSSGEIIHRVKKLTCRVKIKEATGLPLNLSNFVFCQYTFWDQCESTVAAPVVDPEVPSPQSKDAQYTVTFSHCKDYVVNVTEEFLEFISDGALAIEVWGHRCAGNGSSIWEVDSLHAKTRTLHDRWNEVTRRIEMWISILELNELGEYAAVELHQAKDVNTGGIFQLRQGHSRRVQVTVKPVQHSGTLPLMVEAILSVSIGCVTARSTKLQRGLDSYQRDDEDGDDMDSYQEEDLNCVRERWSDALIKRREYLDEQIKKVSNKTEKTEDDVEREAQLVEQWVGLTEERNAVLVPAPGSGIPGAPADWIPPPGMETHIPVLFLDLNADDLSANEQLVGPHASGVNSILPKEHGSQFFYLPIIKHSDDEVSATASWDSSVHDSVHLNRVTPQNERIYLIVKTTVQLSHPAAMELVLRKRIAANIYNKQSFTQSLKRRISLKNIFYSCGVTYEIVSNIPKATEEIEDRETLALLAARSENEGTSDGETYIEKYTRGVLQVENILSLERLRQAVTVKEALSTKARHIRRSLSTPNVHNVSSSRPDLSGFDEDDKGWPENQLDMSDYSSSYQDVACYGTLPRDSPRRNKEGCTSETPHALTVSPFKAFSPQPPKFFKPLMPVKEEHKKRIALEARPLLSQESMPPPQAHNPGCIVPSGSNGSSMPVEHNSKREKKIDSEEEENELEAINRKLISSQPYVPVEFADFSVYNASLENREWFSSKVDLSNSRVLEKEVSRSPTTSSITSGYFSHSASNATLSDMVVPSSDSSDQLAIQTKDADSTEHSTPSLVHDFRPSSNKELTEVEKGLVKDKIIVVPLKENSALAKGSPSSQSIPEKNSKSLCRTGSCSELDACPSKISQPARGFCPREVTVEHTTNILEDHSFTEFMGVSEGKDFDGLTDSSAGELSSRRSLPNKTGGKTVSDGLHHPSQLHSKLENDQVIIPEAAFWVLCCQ

Compound in the first test: C#Cc1cccc(Nc2ncnc3cc(OCCOC)c(OCCOC)cc23)c1 [erlotinib]
In words: log2 fold change, soluble protein after heating vs DMSO (PISA); higher = thermal stabilisation; K562 cells, 10 uM, 30 min; active = over 0.2 and 3.5 SD of the protein, either way, in both replicates (recomputed). An outline of the steps:
(§1)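 K562 cells at 2×10^6 cells/mL were given 10 μM compound for 30 min. Aliquots then went through 3 min of heating across 48°C-58°C, were pooled, and were extracted in PBS with 0.5% NP-40 at 4°C, and the supernatant after 21,000xg for 90 min was quantified by TMTpro 16plex LC-MS/MS with channel sums equalised. Thermal stability relative to control samples, from duplicates, is given as log2 fold change.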
As to KIF21A (UniProt H0YI78), the log2 fold change is inactive: 0.077. On to KBTBD7 (UniProt Q8WVZ9), for which the log2 fold change is inactive: -0.055. Regarding KMT2A isoform 3 (UniProt Q03164), the log2 fold change is inactive: -0.098. For KDM1B (UniProt Q8NB78), the log2 fold change was inactive: 0.141. Still for that read-out and setting: with KDF1 (UniProt Q8NAX2) the figure was inactive: -0.14; with KIF26A (UniProt Q9ULI4), inactive: -0.044.

With JUN (UniProt P05412), the log2 fold change is inactive: -0.301.

Compound in a further test: C/C(=N\NC(=O)C1=CC(=CC=C1)S(=O)(=O)N2CCOCC2)/C3=C(C=CC(=C3)Cl)O
Described as above. An outline of the steps: as §1
KATNAL1 (UniProt Q9BW62): the log2 fold change is inactive: 0.039. For the target KIFC1 (UniProt Q9BW19), the log2 fold change is inactive: 0.027.

Regarding ITSN1 (UniProt Q15811), the log2 fold change was inactive: -0.04. Consider KIF20A (UniProt O95235), for which the log2 fold change was inactive: -0.256. For KIF16B isoform 2 (UniProt Q96L93), the log2 fold change is inactive: -0.086. On the same count and under the same terms, with JMJD8 (UniProt Q96S16) the figure was inactive: 0.098; with KLHL7 isoform 3 (UniProt Q8IXQ5), inactive: -0.045. KBTBD8 (UniProt Q8NFY9): the log2 fold change is inactive: -0.046. For KCTD21 (UniProt Q4G0X4), the log2 fold change is inactive: 0.179. For the target JMJD4 (UniProt Q9H9V9), the log2 fold change was inactive: 0.098.

Consider KDM6A (UniProt O15550), for which the log2 fold change was inactive: 0.138. KIZ (UniProt Q2M2Z5): the log2 fold change is inactive: 0.018. The same measure, in the same setting: to KIF13A isoform 4 (UniProt Q9H1H9) belongs inactive: 0.21; to KLC1 isoform 3 (UniProt Q07866), inactive: -0.111.

For the origin of these results see the supplement of paper PMC10849652.
